This note sets out measurements from PMC10226213.

By UniProt entry, the sequences of proteins in these tests, tags left out.
UniProt Q9Z1E3: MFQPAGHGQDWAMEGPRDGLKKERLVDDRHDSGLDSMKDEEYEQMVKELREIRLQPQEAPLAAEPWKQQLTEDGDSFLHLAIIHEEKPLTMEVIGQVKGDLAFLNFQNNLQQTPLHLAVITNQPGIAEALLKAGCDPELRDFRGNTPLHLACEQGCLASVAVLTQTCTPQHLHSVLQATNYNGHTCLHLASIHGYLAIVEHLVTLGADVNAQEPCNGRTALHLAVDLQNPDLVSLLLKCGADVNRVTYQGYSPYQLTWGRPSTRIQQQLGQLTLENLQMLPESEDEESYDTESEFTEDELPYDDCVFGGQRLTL

In this assay the target is IκBα, endogenous (mouse (endogenous in brain tissue)) (UniProt Q9Z1E3). The experiment in a line: co-IP; endogenous proteins, lysates prepared from brain tissue; immunoblot.

Results are given in words; binding and its absence hold for the method and conditions named. Binding seen in cells or lysates may run through a third protein. Some entries that bind do so weakly or less than the wild type.

B1: Tripartite motif-containing 67 (TRIM67), endogenous (protein, UniProt Q505D9 1-768)
chain: MEEELKCPVCGSLFREPIILPCSHNVCLPCARTIAVQTPDGEQHLPPPLLLSRGAAAAATPPDQDAAAGATSGGAGANTAGGLGGGATGGGDHADKLSLYSETDSGYGSYTPSLKSPNGVRVLPMVPAPPGSSAAAARGAACSSLCSSSSSITCPQCHRSASLDHRGLRGFQRNRLLEGIVQRYQQGRGVVPGAAAAPAVAICQLCDRTPPEPAATLCEQCDVLYCATCQLKCHPSRGPFAKHRLVQPPPPPTPPEATPAVTGTSTASSAGGCRSPGGAGASAPRKFPTCPEHEMENYSMYCVSCRSPVCYMCLEEGRHSKHEVKPLGATWKQHKAQLSQALNGVSDKAKEAKEFLVQLKNILQQIQENGLDYEACLVAQCDALVDALTRQKAKLLTKVTKEREHKLKMVWDQINHCTLKLRQSTGLMEYCLEVIKEDDPSGFLQISDALIKRVQTSQEQWVKGALEPKVSAEFDLTLDSEPLLQAIHQLDFVQMKLPPVPLLQLEKCCTRNNSVTLAWRTPPFTHSPAEGYILELDDGDGGQFREVYVGKETLCTIDGLHFNSTYNARVKAFNSSGVGPYSKTVVLQTSDVAWFTFDPNSGHRDIILSNDNQTATCSSYDDRVVLGTAAFSKGVHYWELHVDRYDNHPDPAFGVARASVVKDMMLGKDDKAWAMYVDNNRSWFMHCNSHTNRTEGGVCKGATVGVLLDLNKHTLTFFINGQQQGPTAFSHVDGVFMPALSLNRNVQVTLHTGLEVPTNLGRPKLSGN
Turning to B1, the binding result is recorded as “binds”.
